Measurements reported in PubChem BioAssay AID192 (DTP/NCI, 2004).
The list does not hold the whole screen: it gathers tests that were run many times, whatever their T/C, doses with no T/C, and many T/C values between a quarter and a half above the control. Further doses and runs are listed elsewhere. T/C is the treated group as % of the vehicle group. Some entries give survivors of the animals treated and no T/C: the source holds a T/C of zero for them, seemingly a mark for toxic or unscored doses. Some survivor counts are full or nearly so, which does not show that the dose was tolerated: survival well below the control is almost never listed, so the zero probably covers shortened survival too. Survivors were counted at the toxicity check, usually on the fifth day, unless a day is given; later deaths do not show. Schedules are NCI's codes, read here as Q, the interval in days (D) or hours (H), X, the number of doses. Some entries were tested several times; the results are listed from low to high. Some molecules as drawn cover several salts, stereoisomers or complexes of the source; a dose is that of the sample tested. Brackets with × say how often a value occurs here. Where survival is the endpoint, the PubChem record calls one and a half times the control and up active, and a quarter to a half above the control has no call in these data; cut-offs in other NCI protocols can differ. Some T/C values are followed by the survivors on the day toxicity was checked, most often the fifth; where none is given, no animal had died by that day.

System: BDF1 mice, B16 melanoma ip, median survival T/C
Assay: NCI In Vivo Anticancer Drug Screen. Data for tumor model B16 Melanoma (intraperitoneal) in B6D2F1 (BDF1) mice
Details: T/C endpoint: median survival time, higher T/C = longer survival
How it was run: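 Antitumor activity is assessed in mice bearing a transplanted tumor, with survival or tumor size compared against vehicle-dosed controls and expressed as T/C.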

[1] = dose: 100.0 mg/kg/injection, schedule: Q04DX003 (ip), vehicle: Klucel (hydroxypropylcellulose) (HPC)
[2] = dose: 100.0 mg/kg/injection, schedule: Q01DX009 (ip), vehicle: saline with Tween-80
[3] = dose: 200.0 mg/kg/injection, schedule: Q01DX009 (ip), vehicle: saline with Tween-80
[4] = dose: 100.0 mg/kg/injection, schedule: Q01DX009 (ip), vehicle: saline
[5] = dose: 3.12 mg/kg/injection, schedule: Q01DX009 (ip), vehicle: Klucel (hydroxypropylcellulose) (HPC)
[6] = dose: 6.25 mg/kg/injection, schedule: Q01DX009 (ip), vehicle: Klucel (hydroxypropylcellulose) (HPC)
[7] = dose: 12.5 mg/kg/injection, schedule: Q01DX009 (ip), vehicle: Klucel (hydroxypropylcellulose) (HPC)
[8] = dose: 25.0 mg/kg/injection, schedule: Q01DX009 (ip), vehicle: Klucel (hydroxypropylcellulose) (HPC)
[9] = dose: 50.0 mg/kg/injection, schedule: Q01DX009 (ip), vehicle: Klucel (hydroxypropylcellulose) (HPC)
[10] = dose: 100.0 mg/kg/injection, schedule: Q01DX009 (ip), vehicle: Klucel (hydroxypropylcellulose) (HPC)
[11] = dose: 25.0 mg/kg/injection, schedule: Q01DX009 (ip), vehicle: saline
[12] = dose: 6.25 mg/kg/injection, schedule: Q01DX009 (ip), vehicle: saline
[13] = dose: 12.5 mg/kg/injection, schedule: Q01DX009 (ip), vehicle: saline
[14] = dose: 50.0 mg/kg/injection, schedule: Q01DX009 (ip), vehicle: saline

C=CCOCC(O)CN(CCC(C)C)CCC(C)C (stereo not drawn)
survivor count [1]: 5 of 10 | survivor count (dose: 200.0 mg/kg/injection, schedule: Q04DX003 (ip), vehicle: Klucel (hydroxypropylcellulose) (HPC)): 0 of 10 | survivor count (dose: 400.0 mg/kg/injection, schedule: Q04DX003 (ip), vehicle: Klucel (hydroxypropylcellulose) (HPC)): 0 of 10

COc1cc2cc3c4ccccc4cc[n+]3c(C)c2cc1OC (tested in a mixture with another compound)
survivor count (dose: 40.0 mg/kg/injection, schedule: Q01DX009 (ip), vehicle: Klucel (hydroxypropylcellulose) (HPC)): 9 of 10 | survivor count (dose: 80.0 mg/kg/injection, schedule: Q01DX009 (ip), vehicle: Klucel (hydroxypropylcellulose) (HPC)): 7 of 10

CCOC(C)C(/C=N/NC(N)=S)=NNC(N)=S (stereo not drawn)
survivor count [2]: 10 of 10 | survivor count [3]: 9 of 10

CN(C)N=Nc1ccc(C(=O)O)cc1
survivor count [4]: 10 of 10 | survivor count (dose: 200.0 mg/kg/injection, schedule: Q01DX009 (ip), vehicle: saline): 9 of 10 | survivor count (dose: 400.0 mg/kg/injection, schedule: Q01DX009 (ip), vehicle: saline): 1 of 10

CCCCc1ccc(-n2c(C)c(COC(=O)NC)c(COC(=O)NC)c2C)cc1
T/C (dose: 1.56 mg/kg/injection, schedule: Q01DX009 (ip), vehicle: Klucel (hydroxypropylcellulose) (HPC)): 125 and 131 % of control | T/C [5]: 129 and 139 % of control | T/C [6]: 146 and 149 % of control | T/C [7]: 139 and 141 % of control | T/C [8]: 145 % of control | survivor count [9]: 9 of 10 and 10 of 10

CCOc1ccc(NC(=O)Nc2ccccc2)cc1
survivor count [3]: 10 of 10 | survivor count (dose: 400.0 mg/kg/injection, schedule: Q01DX009 (ip), vehicle: saline with Tween-80): 10 of 10

Cc1ccccc1NC(=S)N(C)C
survivor count (dose: 50.0 mg/kg/injection, schedule: Q04DX003 (ip), vehicle: Klucel (hydroxypropylcellulose) (HPC)): 10 of 10 | survivor count [1]: 10 of 10

CCCC(=O)OCc1cc(=O)n(C)c2c3c4c(cc12)c(C)cc(=O)n4CO3
T/C [7]: 127 % of control | T/C [8]: 129 and 141 % of control | T/C [9]: 143 % of control | T/C [10]: 136 % of control | survivor count [10]: 10 of 10

COP(=O)(OC)OCc1cnc(SC)nc1N
T/C [11]: 125 % of control [9 of 10 alive]

N=P(N[P+](N)(c1ccccc1)c1ccccc1)(c1ccccc1)c1ccccc1
survivor count [12]: 8 of 10 | survivor count [13]: 8 of 10 | survivor count [11]: 0 of 10 | survivor count [14]: 0 of 10

O=C(NCCCN1CCOCC1)C(Oc1ccccc1)Oc1ccccc1
survivor count (dose: 0.39 mg/kg/injection, schedule: Q01DX009 (ip), vehicle: Klucel (hydroxypropylcellulose) (HPC)): 10 of 10 | survivor count [5]: 10 of 10 | survivor count [6]: 9 of 10 and 10 of 10 | survivor count [7]: 10 of 10 | survivor count [9]: 10 of 10

Clc1ccc(C(c2ccc(Cl)cc2)C(Cl)(Cl)Cl)cc1
survivor count (dose: 64.0 mg/kg/injection, schedule: Q01DX009 (ip), vehicle: Klucel (hydroxypropylcellulose) (HPC)): 10 of 10 | survivor count (dose: 128.0 mg/kg/injection, schedule: Q01DX009 (ip), vehicle: Klucel (hydroxypropylcellulose) (HPC)): 10 of 10 | survivor count (dose: 256.0 mg/kg/injection, schedule: Q01DX009 (ip), vehicle: Klucel (hydroxypropylcellulose) (HPC)): 9 of 10

CC1(C)N=C(N)N=C(N)N1c1ccc2ccccc2c1
survivor count (dose: 75.0 mg/kg/injection, schedule: Q01DX009 (ip), vehicle: Klucel (hydroxypropylcellulose) (HPC)): 7 of 10 | survivor count [2]: 0 of 10

COc1cccnc1/C=N/NC(N)=S
survivor count (dose: 24.0 mg/kg/injection, schedule: Q01DX009 (ip), vehicle: saline with Tween-80): 0 of 10

CCOCCN1CCN(CCCN2c3ccccc3Sc3ccc(C(F)(F)F)cc32)CC1
survivor count (dose: 0.78 mg/kg/injection, schedule: Q01DX009 (ip), vehicle: saline): 10 of 10 | survivor count (dose: 1.56 mg/kg/injection, schedule: Q01DX009 (ip), vehicle: saline): 9 of 10 | survivor count (dose: 3.12 mg/kg/injection, schedule: Q01DX009 (ip), vehicle: saline): 9 of 10 | survivor count [12]: 6 of 10

S=C1SCN(Cc2ccccc2)CN1Cc1ccccc1
survivor count (dose: 200.0 mg/kg/injection, schedule: Q01DX009 (ip), vehicle: Klucel (hydroxypropylcellulose) (HPC)): 9 of 10 | survivor count (dose: 400.0 mg/kg/injection, schedule: Q01DX009 (ip), vehicle: Klucel (hydroxypropylcellulose) (HPC)): 8 of 10

O=C1C(=O)c2ccccc2C(O)=C1CC=C(Cl)Cl
T/C [7]: 87, 94 [5 of 6 alive], 96, 97 (4×), 100, 102 (3×), 103, 105 (2×), 106, 112, 113 % of control | T/C (dose: 12.5 mg/kg/injection, schedule: Q01DX009 (ip), vehicle: saline with Tween-80, evaluated on day 45): 94, 97, 105 % of control | T/C (dose: 12.5 mg/kg/injection, schedule: Q01DX009 (ip), vehicle: saline with Tween-80, evaluated on day 60): 96, 96 [5 of 6 alive], 97, 100 % of control (2×) | T/C [13]: 100, 102, 102 [4 of 6 alive], 103, 111 % of control | T/C [8]: 88, 89 (2×), 94 (2×), 96, 97, 100 (2×), 102, 103, 104 [5 of 6 alive], 105, 106, 111, 118, 120 % of control | T/C (dose: 25.0 mg/kg/injection, schedule: Q01DX009 (ip), vehicle: saline with Tween-80, evaluated on day 45): 91 [5 of 6 alive] and 100 % of control (2×) | T/C (dose: 25.0 mg/kg/injection, schedule: Q01DX009 (ip), vehicle: saline with Tween-80, evaluated on day 60): 96 [5 of 6 alive], 100 (2×), 106 % of control | survivor count (dose: 25.0 mg/kg/injection, schedule: Q01DX009 (ip), vehicle: saline with Tween-80): 6 of 6 | T/C [11]: 91, 93, 94, 96, 111 % of control | T/C [9]: 89, 94 (2×), 95, 97 (2×), 100, 103 (2×), 108, 109, 110 (2×), 112, 115, 116, 120 % of control | T/C (dose: 50.0 mg/kg/injection, schedule: Q01DX009 (ip), vehicle: saline with Tween-80, evaluated on day 45): 100 and 105 % of control | T/C (dose: 50.0 mg/kg/injection, schedule: Q01DX009 (ip), vehicle: saline with Tween-80, evaluated on day 60): 90, 90 [5 of 6 alive], 93 [5 of 6 alive], 103, 120 % of control | survivor count (dose: 50.0 mg/kg/injection, schedule: Q01DX009 (ip), vehicle: saline with Tween-80): 3 of 6 | T/C [14]: 93 (2×), 95 [5 of 6 alive], 97 [5 of 6 alive], 105 % of control | T/C (dose: 50.0 mg/kg/injection, schedule: Q01DX009 (oral), vehicle: water): 125 % of control | T/C [10]: 94 [4 of 6 alive], 100, 102 (2×), 108, 109 [4 of 6 alive], 112 % of control | survivor count [10]: 0 of 6, 3 of 6, 4 of 6, 5 of 6, 6 of 6 | T/C (dose: 100.0 mg/kg/injection, schedule: Q01DX009 (ip), vehicle: saline with Tween-80, evaluated on day 45): 107 % of control | T/C (dose: 100.0 mg/kg/injection, schedule: Q01DX009 (ip), vehicle: saline with Tween-80, evaluated on day 60): 106 % of control [5 of 6 alive] | survivor count [2]: 2 of 6, 3 of 6 (2×), 4 of 6, 6 of 6 | T/C [4]: 89 [4 of 6 alive], 94, 100 % of control | survivor count [4]: 0 of 6, 3 of 6, 6 of 6 | survivor count (dose: 100.0 mg/kg/injection, schedule: Q01DX009 (ip), vehicle: water): 0 of 6 | survivor count (dose: 200.0 mg/kg/injection, schedule: Q01DX009 (oral), vehicle: saline): 5 of 6 | survivor count (dose: 400.0 mg/kg/injection, schedule: Q01DX009 (oral), vehicle: saline): 0 of 6 | survivor count (dose: 400.0 mg/kg/injection, schedule: Q01DX009 (oral), vehicle: water): 0 of 6
